These are yes or no findings as the source states them, for the method shown. In cells and extracts the contact can be indirect. Here binding means that the protein was enriched with, or labelled near, the bait; the list need not be complete.
Target: T1, Developmental pluripotency-associated 3 (mouse (endogenous in mouse ES cells)) (UniProt Q8QZY3)
T1 sequence: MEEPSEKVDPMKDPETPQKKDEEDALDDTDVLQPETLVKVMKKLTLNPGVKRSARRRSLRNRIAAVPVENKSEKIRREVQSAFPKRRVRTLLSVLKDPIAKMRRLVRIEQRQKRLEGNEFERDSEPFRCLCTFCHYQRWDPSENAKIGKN
Experiment: affinity purification with mass spectrometry; IP-MS from mouse ES cell lysate; enriched by anti-Dppa3 antibody (results, legend); methods: IP buffer 50 mM Tris pH 7.4, 150 mM NaCl, 1% Triton X100, anti-FLAG M2 affinity gel at 4 °C, washes with 500 mM NaCl, elution with FLAG peptide, LC-MS/MS

Sequences of proteins named here, by UniProt entry; tags and fusion partners are left off. A change or cut given only in a name is not applied to a line headed by its entry.
UniProt Q9QUM9: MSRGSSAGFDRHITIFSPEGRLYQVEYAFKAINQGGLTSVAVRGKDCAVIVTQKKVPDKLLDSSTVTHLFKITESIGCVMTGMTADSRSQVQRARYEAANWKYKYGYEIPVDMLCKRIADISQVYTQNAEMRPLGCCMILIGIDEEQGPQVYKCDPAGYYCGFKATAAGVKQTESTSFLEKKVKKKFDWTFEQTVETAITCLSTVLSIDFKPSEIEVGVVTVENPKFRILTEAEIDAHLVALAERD
UniProt Q9Z2U0: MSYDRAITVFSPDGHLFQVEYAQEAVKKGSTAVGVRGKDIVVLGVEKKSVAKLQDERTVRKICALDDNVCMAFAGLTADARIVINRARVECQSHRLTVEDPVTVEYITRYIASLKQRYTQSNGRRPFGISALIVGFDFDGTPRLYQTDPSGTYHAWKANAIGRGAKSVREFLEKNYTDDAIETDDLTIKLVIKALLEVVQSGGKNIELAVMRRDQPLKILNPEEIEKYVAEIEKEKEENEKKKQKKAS
UniProt Q9Z2U1: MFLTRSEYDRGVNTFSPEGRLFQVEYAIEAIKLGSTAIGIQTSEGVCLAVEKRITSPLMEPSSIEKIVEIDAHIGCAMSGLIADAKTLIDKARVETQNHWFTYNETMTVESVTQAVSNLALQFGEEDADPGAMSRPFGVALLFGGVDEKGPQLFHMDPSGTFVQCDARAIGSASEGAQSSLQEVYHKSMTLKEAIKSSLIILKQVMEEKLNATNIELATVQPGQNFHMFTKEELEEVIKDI
UniProt Q9R1P4: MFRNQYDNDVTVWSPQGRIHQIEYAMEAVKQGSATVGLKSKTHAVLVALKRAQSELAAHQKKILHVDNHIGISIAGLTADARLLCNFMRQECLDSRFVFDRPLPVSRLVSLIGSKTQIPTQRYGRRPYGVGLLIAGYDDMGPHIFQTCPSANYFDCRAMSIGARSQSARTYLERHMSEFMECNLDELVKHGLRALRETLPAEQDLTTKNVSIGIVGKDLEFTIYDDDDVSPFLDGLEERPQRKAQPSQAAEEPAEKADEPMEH
UniProt O09061: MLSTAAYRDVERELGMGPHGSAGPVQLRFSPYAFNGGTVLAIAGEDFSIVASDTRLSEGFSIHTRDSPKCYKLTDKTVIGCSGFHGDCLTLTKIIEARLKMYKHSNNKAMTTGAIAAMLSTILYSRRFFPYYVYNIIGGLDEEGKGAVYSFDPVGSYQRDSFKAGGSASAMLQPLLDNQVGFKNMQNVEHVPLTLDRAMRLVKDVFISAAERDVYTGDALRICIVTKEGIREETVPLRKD
UniProt O88685: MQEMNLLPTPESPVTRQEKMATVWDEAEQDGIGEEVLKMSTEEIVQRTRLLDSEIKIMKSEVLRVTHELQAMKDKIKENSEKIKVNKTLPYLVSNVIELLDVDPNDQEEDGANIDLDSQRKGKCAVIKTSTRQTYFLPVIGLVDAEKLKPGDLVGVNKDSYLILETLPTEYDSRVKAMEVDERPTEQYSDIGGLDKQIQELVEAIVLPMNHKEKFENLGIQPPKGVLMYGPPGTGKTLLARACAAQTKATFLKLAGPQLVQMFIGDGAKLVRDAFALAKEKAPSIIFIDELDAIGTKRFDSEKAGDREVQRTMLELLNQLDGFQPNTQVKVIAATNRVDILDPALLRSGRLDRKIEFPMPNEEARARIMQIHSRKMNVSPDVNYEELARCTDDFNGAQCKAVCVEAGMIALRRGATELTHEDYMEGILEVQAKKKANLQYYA

| Molecule | binding |
| --- | --- |
| proteasome α1 subunit (from UniProt Q9QUM9 1-246) | binds |
| proteasome α4 subunit (from UniProt Q9Z2U0 1-248) | binds |
| proteasome α5 subunit (from UniProt Q9Z2U1 1-241) | binds |
| proteasome α6 subunit (from UniProt Q9R1P4 1-263) | binds |
| proteasome β6 subunit (from UniProt O09061) | binds |
| regulatory particle triple-ATPase Rpt5 (from UniProt O88685 1-442) | binds |
| proteasome α2 subunit (protein, UniProt P49722 1-234) MAERGYSFSLTTFSPSGKLVQIEYALAAVAGGAPSVGIKAANGVVLATEKKQKSILYDERSVHKVEPITKHIGLVYSGMGPDYRVLVHRARKLAQQYYLVYQEPIPTAQLVQRVASVMQEYTQSGGVRPFGVSLLICGWNEGRPYLFQSDPSGAYFAWKATAMGKNYVNGKTFLEKRYNEDLELEDAIHTAILTLKESFEGQMTEDNIEVGICNEAGFRRLTPTEVRDYLAAIA | binds |
| proteasome α7 subunit (protein, UniProt O70435 1-255) MSSIGTGYDLSASTFSPDGRVFQVEYAMKAVENSSTAIGIRCKDGVVFGVEKLVLSKLYEEGSNKRLFNVDRHVGMAVAGLLADARSLADIAREEASNFRSNFGYNIPLKHLADRVAMYVHAYTLYSAVRPFGCSFMLGSYSANDGAQLYMIDPSGVSYGYWGCAIGKARQAAKTEIEKLQMKEMTCRDVVKEVAKIIYIVHDEVKDKAFELELSWVGELTKGRHEIVPKDIREEAEKYAKESLKEEDESDDDNM | binds |
| Nsflc (protein, UniProt Q9CZ44 1-370) MAEERQDALREFVAVTGTEEDRARFFLESAGWDLQIALASFYEDGGDEDIVTISQATPSSVSRGTAPSDNRVTSFRDLIHDQDEEEEEEEGQRFYAGGSERSGQQIVGPPRKKSPNELVDDLFKGAKEHGAVAVERVTKSPGETSKPRPFAGGGYRLGAAPEEESAYVAGERRRHSGQDVHVVLKLWKTGFSLDNGDLRSYQDPSNAQFLESIRRGEVPAELRRLAHGGQVNLDMEDHRDEDFVKPKGAFKAFTGEGQKLGSTAPQVLNTSSPAQQAENEAKASSSILINEAEPTTNIQIRLADGGRLVQKFNHSHRISDIRLFIVDARPAMAATSFVLMTTFPNKELADENQTLKEANLLNAVIVQRLT | binds |
| Psmd7 (protein, UniProt P26516 1-321) MPELAVQKVVVHPLVLLSVVDHFNRIGKVGNQKRVVGVLLGSWQKKVLDVSNSFAVPFDEDDKDDSVWFLDHDYLENMYGMFKKVNARERIVGWYHTGPKLHKNDIAINELMKRYCPNSVLVIIDVKPKDLGLPTEAYISVEEVHDDGTPTSKTFEHVTSEIGAEEAEEVGVEHLLRDIKDTTVGTLSQRITNQVHGLKGLNSKLLDIRSYLEKVASGKLPINHQIIYQLQDVFNLLPDASLQEFVKAFYLKTNDQMVVVYLASLIRSVVALHNLINNKIANRDAEKKEGQEKEESKKERKDDKEKEKSDAAKKEEKKEKK | binds |

Source: paper PMC9044575
